Experimental data as given in article PMC8674125, “Analysis of Il36a induction by C/EBPβ via a half-CRE•C/EBP element in murine macrophages in dependence of its CpG methylation level”.
For at least one entry, the source does not settle the construct or the ends of the probe. Where cells or extracts were used, other partners may take part.

Amino acid sequences for entries named in this document (tags omitted). A change or cut given only in a name is not applied to a line headed by its entry.
UniProt P28033: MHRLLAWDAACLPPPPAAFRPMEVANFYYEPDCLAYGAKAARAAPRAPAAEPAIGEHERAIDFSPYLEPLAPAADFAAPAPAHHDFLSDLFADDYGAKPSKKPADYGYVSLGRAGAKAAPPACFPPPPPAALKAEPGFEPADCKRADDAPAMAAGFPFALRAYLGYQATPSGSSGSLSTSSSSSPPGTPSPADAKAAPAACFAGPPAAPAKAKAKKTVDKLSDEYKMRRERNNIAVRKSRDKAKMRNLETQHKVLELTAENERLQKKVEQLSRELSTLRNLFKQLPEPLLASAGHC
UniProt Q00322, whole entry, stated change not applied: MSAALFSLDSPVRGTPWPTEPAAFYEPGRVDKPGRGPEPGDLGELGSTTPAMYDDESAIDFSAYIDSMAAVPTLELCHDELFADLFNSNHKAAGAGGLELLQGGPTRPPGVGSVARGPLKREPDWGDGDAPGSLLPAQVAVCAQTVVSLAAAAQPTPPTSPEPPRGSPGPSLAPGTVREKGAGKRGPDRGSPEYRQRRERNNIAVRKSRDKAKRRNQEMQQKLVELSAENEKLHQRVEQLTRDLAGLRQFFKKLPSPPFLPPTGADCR

Key:
Assay in all cases: EMSA supershift
[1] = biological target: C/EBPβ (mouse (RAW264.7)) (UniProt P28033); conditions: RAW264.7 nuclear extract, LPS 4 h, protein in an extract, label: 32P-dCTP by Klenow fill-in
[2] = biological target: C/EBPβ (mouse (primary BMDM)) (UniProt P28033); conditions: BMDM nuclear extract, LPS 4 h, protein in an extract, label: 32P-dCTP by Klenow fill-in
[3] = biological target: C/EBPδ (mouse (RAW264.7)) (UniProt Q00322); conditions: RAW264.7 nuclear extract, LPS 4 h, protein in an extract, label: 32P-dCTP by Klenow fill-in
[4] = biological target: C/EBPδ (mouse (primary BMDM)) (UniProt Q00322); conditions: BMDM nuclear extract, LPS 4 h, minor extent, protein in an extract, label: 32P-dCTP by Klenow fill-in
[5] = 5-methyl-C (mC) at position 18 of strand 1 and position 14 of strand 2

Measured: binding result

TCAGGTACTTCATCTTACGTCACCTAGT / TCAGACTAGGTGACGTAAGATGAAGTAC [half-CRE•C/EBP_Il36a EMSA probe, unmethylated]
binds: [1] | [2] | [3]; present to a certain extent | [4]

TCAGGTACTTCATCTTACGTCACCTAGT / TCAGACTAGGTGACGTAAGATGAAGTAC [half-CRE•C/EBP_Il36a EMSA probe, methylated]
binds: [1]; [5] | [2]; [5] | [3]; [5] | [4]; [5]
